Earlier results, collected in patent US8609652B2, “Method of administering a methylene blue-curcumin analog for the treatment of alzheimer's disease” (DePuy Synthes Products, LLC, priority 2009, dated 2013).
For at least one compound, name, drawing or mass did not settle the structure.

Tests used:
[1] = test system: beta amyloid; settings: 160 ppm in the diet; cited from earlier work
[2] = test system: amyloid beta deposits; settings: 500 ppm dietary curcumin, middle aged female rats; cited from earlier work
[3] = test system: PC12 cells, βA (1-42); settings: cited from earlier work

COc1cc(/C=C/C(=O)CC(=O)/C=C/c2ccc(O)c(OC)c2)ccc1O [curcumin, (E,E)-1,7-bis(4-hydroxy-3-methoxyphenyl)-1,6-heptadiene-3,5,-dione]
reduction of beta amyloid plaque burden [1]: 30-40% | reduction of the amount of soluble beta amyloid [1]: 43% | reduction of amyloid beta deposits induced by beta amyloid infusion [2]: about 80% | anti-BA (1-42) ED50 ([3]; Kim): 6.8 ± 0.4 µg/mL | anti-βA (1-42) ED50 ([3]; Park): 10.0 ± 0.9 µg/mL
